These are yes or no findings as the source states them, for the method shown. Binding seen in cells or lysates may run through a third protein. Some results given as binding are weak or reduced against the parent protein; the word gives no strength. Sequences can lack the tags named with a protein.
Target: Programmed death-ligand 1 (PD-L1), Flag-tagged (UniProt Q9NZQ7)
Assay: co-IP; HA-MINDY1 and Flag-PD-L1 transfected into Hep3B and Huh-7 cells for 24 h; lysate supernatant mixed with the specific antibody at 4°C for 12 h, protein A/G agarose beads 2 h, Western blot (Classic Magnetic IP/Co-IP Kit)

By UniProt entry, the sequences of proteins in these tests, tags left out. Residues count along the entry.
UniProt Q9NZQ7, residues 19-290: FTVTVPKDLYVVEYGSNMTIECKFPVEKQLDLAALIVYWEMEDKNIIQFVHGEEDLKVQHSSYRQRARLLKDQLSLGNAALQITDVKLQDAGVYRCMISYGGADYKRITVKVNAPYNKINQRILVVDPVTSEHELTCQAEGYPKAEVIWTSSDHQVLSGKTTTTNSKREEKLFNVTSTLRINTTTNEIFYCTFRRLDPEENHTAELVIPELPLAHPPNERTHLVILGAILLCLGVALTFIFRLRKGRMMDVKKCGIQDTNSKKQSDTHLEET

B1: Motif interacting with ubiquitin-containing novel DUB family-1 (MINDY1), HA-tagged (enzyme, UniProt Q8N5J2 1-469)
chain: MEYHQPEDPAPGKAGTAEAVIPENHEVLAGPDEHPQDTDARDADGEAREREPADQALLPSQCGDNLESPLPEASSAPPGPTLGTLPEVETIRACSMPQELPQSPRTRQPEPDFYCVKWIPWKGEQTPIITQSTNGPCPLLAIMNILFLQWKVKLPPQKEVITSDELMAHLGNCLLSIKPQEKSEGLQLNFQQNVDDAMTVLPKLATGLDVNVRFTGVSDFEYTPECSVFDLLGIPLYHGWLVDPQSPEAVRAVGKLSYNQLVERIITCKHSSDTNLVTEGLIAEQFLETTAAQLTYHGLCELTAAAKEGELSVFFRNNHFSTMTKHKSHLYLLVTDQGFLQEEQVVWESLHNVDGDSCFCDSDFHLSHSLGKGPGAEGGSGSPETQLQVDQDYLIALSLQQQQPRGPLGLTDLELAQQLQQEEYQQQQAAQPVRMRTRVLSLQGRGATSGRPAGERRQRPKHESDCILL
In the case of B1, the binding is reported as “binds”.

— PMC12573202
